Laboratory results published in PMC5670216.
No signal at the amounts used counts as a negative. For some assays here: The exact form of at least one protein or probe is not confirmed. For some assays here: Where cells or extracts were used, other partners may take part.

By UniProt entry, the sequences of proteins in these tests, tags left out. Residues count along the entry.
UniProt Q13296, 19-93: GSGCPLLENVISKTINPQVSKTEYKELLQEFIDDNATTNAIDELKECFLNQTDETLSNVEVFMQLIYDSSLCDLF
UniProt O75556, 19-95: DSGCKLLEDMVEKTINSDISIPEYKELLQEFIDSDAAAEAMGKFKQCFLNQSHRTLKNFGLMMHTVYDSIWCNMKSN
UniProt P02769, 25-607: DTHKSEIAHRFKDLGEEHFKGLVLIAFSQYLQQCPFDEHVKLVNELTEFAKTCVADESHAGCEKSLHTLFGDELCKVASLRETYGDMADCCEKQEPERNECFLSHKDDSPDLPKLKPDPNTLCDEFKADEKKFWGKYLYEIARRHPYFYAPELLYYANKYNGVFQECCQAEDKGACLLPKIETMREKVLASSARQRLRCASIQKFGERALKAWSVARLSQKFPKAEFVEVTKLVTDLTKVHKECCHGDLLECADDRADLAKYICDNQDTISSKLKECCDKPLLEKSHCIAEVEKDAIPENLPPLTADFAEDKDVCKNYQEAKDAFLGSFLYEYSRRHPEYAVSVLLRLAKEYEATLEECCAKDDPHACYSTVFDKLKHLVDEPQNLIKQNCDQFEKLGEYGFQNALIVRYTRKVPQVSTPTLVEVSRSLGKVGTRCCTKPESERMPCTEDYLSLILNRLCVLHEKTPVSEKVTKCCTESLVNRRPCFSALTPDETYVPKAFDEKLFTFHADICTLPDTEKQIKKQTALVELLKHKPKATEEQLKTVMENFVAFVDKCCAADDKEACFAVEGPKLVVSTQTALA

Experiments:
[1] = target: Mammaglobin A (MGB1) on transfected HEK293 cells (UniProt Q13296); assay: flow cytometry; settings: 5 mM Mg2+, protein on the cell surface, label: 5' 6-FAM (unlabeled in antibody blocking), single-stranded DNA
[2] = target: Mammaglobin B (MGB2) on transfected HEK293 cells (UniProt O75556); assay: flow cytometry; settings: 5 mM Mg2+, protein on the cell surface, label: 5' 6-FAM (unlabeled in antibody blocking), single-stranded DNA
[3] = target: Bovine serum albumin (BSA) (bovine) (UniProt P02769); assay: EMSA; settings: no significant shift, MAMA2 likewise; EMSA: 50 mM Tris-HCl, 10 mM reduced glutathione, pH 8.0, 1 h at 37 C, 8% native PAGE; transfected-cell flow cytometry: PBS, 5 mM MgCl2, 4 C, 30 min; commercial protein; label: 5' 6-FAM (unlabeled in antibody blocking); single-stranded DNA

| Sequence | binding result [1] | binding result ([2]; 300 nM aptamer, no binding to pUC19-transfected cells, blocks anti-MGB2) | binding result [3] | binding result ([1]; 300 nM aptamer, no binding to pUC19-transfected cells, blocks anti-MGB1) | binding result [2] |
| --- | --- | --- | --- | --- | --- |
| CATGCTTACCTATAGTGAACCCAACGTCGAACTGAATCCCGTGTCCTTTGAGAACTGACTCATAC [MAMB1] | no binding | binds | no binding |  |  |
| CATGCTTACCTATAGTGAACCCGGGACAGAACGTGCGCTTTGAGCTTTGAGAACTGACTCATAC [MAMA2] |  |  |  | binds | no binding |
